Numbering of substitutions follows the chain as printed. Results are given in words; binding and its absence hold for the method and conditions named. Binding seen in cells or lysates may run through a third protein. Binding can be weak; no strength is given. Where a sequence is shown, tags or fusion partners need not be part of it.
What was measured:
Experiment in all cases: co-IP; GFP-WDR44 wild-type or variants transiently expressed in RPE1 WDR44 KO F4 cells for 48 h; GFP proteins immunoprecipitated from lysate, blots probed with GFP, RAB11 and VAPA antibodies
[1] = biological target: T1, GFP-tagged WDR44 G782C (human) (UniProt Q5JSH3)
T1 sequence: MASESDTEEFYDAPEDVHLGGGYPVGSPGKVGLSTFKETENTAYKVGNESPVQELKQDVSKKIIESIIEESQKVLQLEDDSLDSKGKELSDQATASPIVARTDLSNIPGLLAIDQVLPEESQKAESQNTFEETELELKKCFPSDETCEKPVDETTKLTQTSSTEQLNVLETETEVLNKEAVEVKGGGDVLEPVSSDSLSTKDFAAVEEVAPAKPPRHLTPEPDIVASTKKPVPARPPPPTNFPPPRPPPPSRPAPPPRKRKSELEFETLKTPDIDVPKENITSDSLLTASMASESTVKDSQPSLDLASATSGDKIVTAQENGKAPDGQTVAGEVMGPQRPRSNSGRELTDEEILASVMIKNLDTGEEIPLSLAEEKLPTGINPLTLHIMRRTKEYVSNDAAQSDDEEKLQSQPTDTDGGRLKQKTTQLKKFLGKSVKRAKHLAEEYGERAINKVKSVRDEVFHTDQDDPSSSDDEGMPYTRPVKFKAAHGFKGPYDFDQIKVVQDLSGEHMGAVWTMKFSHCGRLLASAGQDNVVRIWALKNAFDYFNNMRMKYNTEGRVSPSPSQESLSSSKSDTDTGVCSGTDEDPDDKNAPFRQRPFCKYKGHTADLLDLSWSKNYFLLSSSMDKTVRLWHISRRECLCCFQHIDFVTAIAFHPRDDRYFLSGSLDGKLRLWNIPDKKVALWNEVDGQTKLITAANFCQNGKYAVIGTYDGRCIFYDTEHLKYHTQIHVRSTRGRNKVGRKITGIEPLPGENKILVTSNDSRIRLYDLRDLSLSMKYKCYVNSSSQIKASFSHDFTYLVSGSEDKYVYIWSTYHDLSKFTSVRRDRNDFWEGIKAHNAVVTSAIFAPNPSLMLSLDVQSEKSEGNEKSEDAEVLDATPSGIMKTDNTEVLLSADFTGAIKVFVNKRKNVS

[2] = biological target: T2, GFP-tagged WDR44 R733* (human) (UniProt Q5JSH3)
T2 sequence: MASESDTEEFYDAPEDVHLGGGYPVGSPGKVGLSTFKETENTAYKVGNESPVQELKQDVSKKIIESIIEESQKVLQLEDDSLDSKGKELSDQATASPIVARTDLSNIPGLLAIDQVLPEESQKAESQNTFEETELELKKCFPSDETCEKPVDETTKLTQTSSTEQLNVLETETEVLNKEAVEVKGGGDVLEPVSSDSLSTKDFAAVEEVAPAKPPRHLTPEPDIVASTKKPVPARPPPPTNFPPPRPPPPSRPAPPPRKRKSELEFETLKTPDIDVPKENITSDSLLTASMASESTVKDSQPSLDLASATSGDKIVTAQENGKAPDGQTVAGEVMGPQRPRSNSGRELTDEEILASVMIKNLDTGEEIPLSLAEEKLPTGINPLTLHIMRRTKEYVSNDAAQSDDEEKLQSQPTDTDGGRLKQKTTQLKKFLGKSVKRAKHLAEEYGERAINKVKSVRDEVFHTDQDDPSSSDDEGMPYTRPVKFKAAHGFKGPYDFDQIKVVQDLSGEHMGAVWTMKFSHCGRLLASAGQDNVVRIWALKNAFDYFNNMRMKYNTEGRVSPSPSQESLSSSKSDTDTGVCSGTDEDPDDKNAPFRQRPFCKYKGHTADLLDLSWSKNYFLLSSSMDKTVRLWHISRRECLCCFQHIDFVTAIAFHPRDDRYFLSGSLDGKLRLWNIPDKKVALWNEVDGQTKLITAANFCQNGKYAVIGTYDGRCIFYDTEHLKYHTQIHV

[3] = biological target: T3, GFP-tagged WDR44 S764F (human) (UniProt Q5JSH3)
T3 sequence: T1 sequence with S764F, C782G

binding [1]: binds
binding [2]: binds
binding [3]: binds
Substance: Endogenous RAB11

— PMC10774338
